The results in this text go back to US20060233704A1 (priority 2000, published 2006).

The nature of the series: general procedure: peptide synthesis; Rink-amide resin; HATU. Particulars: whole synthesis, HPLC.

On to D-Asp-Tyr-Nle-Gly-Trp-Nle-Asp-Phe-NH2, for which the “purity (crude or final not stated)” value is on record as more than 95%.
